Literature values as cited in patent publication US5534496A, “Methods and compositions to enhance epithelial drug transport” (University of Southern California, priority 1994, dated 1996).

Conditions: from Betageri and Rogers (1987); cited from earlier work

For `CC(C)NCC(O)COc1ccc(CC(N)=O)cc1` (stereo not shown) [atenolol], which “distribution coefficient (DC)” value is on record?
The value was 1.46.
